Test results reported in patent US11485769B2, “Peptides and combination of peptides for use in immunotherapy and methods for generating scaffolds for the use against pancreatic cancer and other cancers” (Immatics Biotechnologies GmbH, priority 2015, dated 2022).
For some of these results: For expression read-outs the peptide stands for its source gene, whose mRNA was measured; the gene is not named for every peptide.

Tests used:
[1] = test system: tumors compared to a panel of normal tissues; experiment: Identification and label-free LC-MS quantitation of HLA-presented tumor associated peptides (presentation profiles/scores); design: species or system human; key to Peptide Presentation (presentation score): very highly over-presented on tumors compared to a panel of normal tissues (+++); highly over-presented on tumors compared to a panel of normal tissues (++); over-presented on tumors compared to a panel of normal tissues (+); settings: for Peptide Presentation (presentation score): over-presentation on tumors compared to a panel of normal tissues, label-free LC-MS quantitation of HLA peptides
[2] = test system: source genes (mRNA) in tumors compared to a panel of normal tissues; experiment: Expression profiling of genes encoding the peptides (Affymetrix microarray, expression scores); design: species or system human; key: very highly over-expressed in tumors compared to a panel of normal tissues (+++); highly over-expressed in tumors compared to a panel of normal tissues (++); over-expressed in tumors compared to a panel of normal tissues (+); settings: over-expression of the source gene in tumors compared to a panel of normal tissues; Affymetrix microarrays

| Substance | Peptide Presentation (presentation score) [1] | Gene Expression (expression score) [2] | other results |
| --- | --- | --- | --- |
| 80: peptide found in FN1 (gene looked up) (LLPGTEYVVSV; listed as Homo sapiens) [compound 80] | + | +++ |  |
| 132: peptide found in HNRNPU (gene looked up) (FLWAGGRASYGV; listed as Homo sapiens) [compound 132] | +++ | + |  |
| 11: peptide found in IPO7 (gene looked up) (ALYYNPHLL; listed as Homo sapiens) [compound 11] | +++ | + |  |
| 75: peptide found in COL1A1 (gene looked up) (FSFVDLRLL; listed as Homo sapiens) [compound 75] | +++ | +++ |  |
| 31: peptide found in ADAM9 (gene looked up) (YLDSMYIML; listed as Homo sapiens) [compound 31] | ++ | + |  |
| 136: peptide found in ASNS (gene looked up) (KLFPGFEIETV; listed as Homo sapiens) [compound 136] | +++ | +++ |  |
| 139: peptide found in STAT2 (gene looked up) (SIDRNPPQL; listed as Homo sapiens) [compound 139] |  | + |  |
| 67: peptide found in MCM4 (gene looked up) (VIWGTDVNV; listed as Homo sapiens) [compound 67] | ++ | +++ |  |
| 165: peptide found in NCAPG (gene looked up) (YLLSYIQSI; listed as Homo sapiens) [compound 165] | ++ | +++ |  |
| 92: peptide found in PLEC (gene looked up) (YLTNEGIAHL; listed as Homo sapiens) [compound 92] | + | +++ |  |
| 95: peptide found in MCM4 (gene looked up) (ALADDDFLTV; listed as Homo sapiens) [compound 95] | ++ | +++ |  |
| 91: peptide found in PLEC (gene looked up) (LLFNDVQTL; listed as Homo sapiens) [compound 91] | + | +++ |  |
| 175: peptide found in CCND1 (gene looked up) (ALLESSLRQA; listed as Homo sapiens) [compound 175] | ++ | + |  |
| 26: peptide found in MAN2A1 (gene looked up) (SLYTALTEA; listed as Homo sapiens) [compound 26] |  | + |  |
| 145: peptide found in NONO (gene looked up) (TTFPRPVTV; listed as Homo sapiens) [compound 145] | +++ | + |  |
| 126: peptide found in PRKDC (gene looked up) (ALLSLDPAAV; listed as Homo sapiens) [compound 126] | +++ | + |  |

| Substance | Peptide Presentation (presentation score) [1] | Gene Expression (expression score) [2] | other results |
| --- | --- | --- | --- |
| 61: peptide found in TRPV2 (gene looked up) (SMYDGLLQA; listed as Homo sapiens) [compound 61] | ++ | ++ |  |
| 12: peptide found in PTPN14 (gene looked up) (AQYKFVYQV; listed as Homo sapiens) [compound 12] | +++ | + | peptide additionally detected on esophageal cancers (positive/measured samples) [1]: 2/17; peptide additionally detected on kidney cancers (positive/measured samples) ([1]; kidney cancers): 1/18; peptide additionally detected on lung cancers (positive/measured samples) [1]: 1/91; peptide additionally detected on ovarian cancers (positive/measured samples) [1]: 1/20; peptide additionally detected on stomach cancers (positive/measured samples) [1]: 1/46 |
| 173: peptide found in NCAPD2 (gene looked up) (SLAGDVALQQL; listed as Homo sapiens) [compound 173] | +++ | + |  |
| 22 (ILSTEIFGV; listed as Homo sapiens) [compound 22] | +++ |  | peptide additionally detected on breast cancers (positive/measured samples) [1]: 3/18; peptide additionally found on gallbladder cancers (positive/measured samples) ([1]; gallbladder cancers): 1/17; peptide additionally found on head and neck cancers (positive/measured samples) [1]: 1/8; peptide additionally found on leukocytic leukemia cancers (positive/measured samples) [1]: 5/17; peptide additionally detected on lung cancers (positive/measured samples) [1]: 6/107; peptide additionally found on lymph node cancers (positive/measured samples) [1]: 4/20; peptide additionally detected on ovarian cancers (positive/measured samples) [1]: 1/20; peptide additionally found on pancreas cancers (positive/measured samples) ([1]; pancreas cancers): 1/19; peptide additionally found on skin cancers (positive/measured samples) [1]: 1/18; peptide additionally detected on stomach cancers (positive/measured samples) [1]: 1/21 |
| 16 (GLIDYDTGI; listed as Homo sapiens) [compound 16] | +++ |  |  |
| 159 (SLLDLHTKV; listed as Homo sapiens) [compound 159] | + |  |  |
| 15 (FILANEHNV; listed as Homo sapiens) [compound 15] | +++ |  |  |
| 1 (FVDTRTLL; listed as Homo sapiens) [compound 1] | +++ |  | peptide additionally detected on esophageal cancers (positive/measured samples) [1]: 1/17; peptide additionally detected on lung cancers (positive/measured samples) [1]: 3/91 |
| 7 (ALVDIVRSL; listed as Homo sapiens) [compound 7] | +++ |  |  |
| 149 (ILGTEDLIVEV; listed as Homo sapiens) [compound 149] | + |  |  |
| 108 (IADGGFTEL; listed as Homo sapiens) [compound 108] | +++ |  |  |
| 111 (LLLAAARLAAA; listed as Homo sapiens) [compound 111] | + |  |  |
| 151 (ALLDIIRSL; listed as Homo sapiens) [compound 151] | +++ |  |  |
| 127 (ALSDLALHFL; listed as Homo sapiens) [compound 127] |  |  | peptide additionally detected on brain cancers (positive/measured samples) ([1]; brain cancers): 1/34; peptide additionally detected on breast cancers (positive/measured samples) [1]: 2/18; peptide additionally found on head and neck cancers (positive/measured samples) [1]: 2/8; peptide additionally found on leukocytic leukemia cancers (positive/measured samples) [1]: 3/17; peptide additionally detected on liver cancers (positive/measured samples) ([1]; liver cancers): 1/21; peptide additionally detected on lung cancers (positive/measured samples) [1]: 3/107; peptide additionally found on lymph node cancers (positive/measured samples) [1]: 4/20; peptide additionally found on myeloid cell cancers (positive/measured samples) ([1]; myeloid cell cancers): 2/18; peptide additionally detected on ovarian cancers (positive/measured samples) [1]: 1/20; peptide additionally found on skin cancers (positive/measured samples) [1]: 3/18; peptide additionally detected on urinary bladder cancers (positive/measured samples) ([1]; urinary bladder cancers): 4/15 |
| 94 (VMMEEFVQL; listed as Homo sapiens) [compound 94] | + |  |  |
| 60 (SLWEDYPHV; listed as Homo sapiens) [compound 60] | ++ |  |  |
